Among the data in article PMC12500908 are binding values, retold here.

The chains behind the UniProt entries cited, without tags or fusion partners.
UniProt Q86U44: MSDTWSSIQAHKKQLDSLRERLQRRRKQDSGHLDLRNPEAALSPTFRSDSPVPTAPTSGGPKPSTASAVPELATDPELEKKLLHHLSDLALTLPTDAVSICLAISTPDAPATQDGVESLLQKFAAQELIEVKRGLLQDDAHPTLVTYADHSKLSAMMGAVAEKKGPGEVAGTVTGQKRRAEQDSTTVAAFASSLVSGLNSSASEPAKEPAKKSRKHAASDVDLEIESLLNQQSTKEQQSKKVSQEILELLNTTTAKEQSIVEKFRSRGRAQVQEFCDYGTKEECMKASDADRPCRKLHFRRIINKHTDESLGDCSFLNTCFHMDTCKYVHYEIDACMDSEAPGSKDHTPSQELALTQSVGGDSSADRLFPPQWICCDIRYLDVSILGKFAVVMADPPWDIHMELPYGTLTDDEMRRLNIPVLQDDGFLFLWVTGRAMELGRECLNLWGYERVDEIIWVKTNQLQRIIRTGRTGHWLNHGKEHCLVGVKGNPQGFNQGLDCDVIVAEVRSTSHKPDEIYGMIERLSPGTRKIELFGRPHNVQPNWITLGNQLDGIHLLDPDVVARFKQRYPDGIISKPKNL
UniProt Q15172: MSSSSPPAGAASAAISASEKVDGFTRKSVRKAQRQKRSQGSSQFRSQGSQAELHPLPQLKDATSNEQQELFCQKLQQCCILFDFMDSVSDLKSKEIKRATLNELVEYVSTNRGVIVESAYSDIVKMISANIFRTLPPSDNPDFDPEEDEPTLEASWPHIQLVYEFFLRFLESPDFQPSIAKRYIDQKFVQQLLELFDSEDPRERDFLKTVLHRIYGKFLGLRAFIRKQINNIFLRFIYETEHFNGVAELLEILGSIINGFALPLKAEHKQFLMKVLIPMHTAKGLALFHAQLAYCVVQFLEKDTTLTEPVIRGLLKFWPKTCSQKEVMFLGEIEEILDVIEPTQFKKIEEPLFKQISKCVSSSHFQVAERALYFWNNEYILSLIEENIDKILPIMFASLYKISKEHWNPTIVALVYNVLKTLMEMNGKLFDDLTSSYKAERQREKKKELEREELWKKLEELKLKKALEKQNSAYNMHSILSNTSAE

Results are given in words; binding and its absence hold for the method and conditions named. In cells and extracts the contact can be indirect. Here binding means that the protein was enriched with, or labelled near, the bait; the list need not be complete.

This test deals with methyltransferase-like 3 (METTL3), overexpressed in 293T cells (UniProt Q86U44). Put plainly: affinity purification with mass spectrometry; Co-IP followed by mass spectrometry (Co-IP/MS) of protein extracts of METTL3-overexpressing 293T cells.

With “protein phosphatase 2A (PP2A) B56α subunit, in 293T cells (from UniProt Q15172 1-486)”, the binding result was “binds”.
